Experimental data reported in the supplement of paper PMC4604168 (melanoma cell lines).
This is one part of the list. Single values are uncertain, as repeats are few or missing.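 Imaging used 1,536-well plates; nuclei positive for cleaved PARP by antibody were divided by total DNA-stained nuclei to yield the apoptosis fraction. Doses for screening kept most cells viable, and cell lines differ markedly in resting and induced cleaved-PARP levels.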

system: CBRC017 (line from a melanoma biopsy); assay: cleaved PARP positive nuclei fraction relative to DMSO control; melanoma cells; higher = more apoptosis; details: library dose: low library concentration; 72 h

SMILES	cleaved PARP positive nuclei fraction [%]
Nc1cccc2c1CN(C1CCC(=O)NC1=O)C2=O (stereo not drawn) [lenalidomide] + Cn1cc(/C=C2\C(=O)Nc3cccnc32)c2ccccc21 [GW441756] (first compound 1 µM, partner dose 0.4 µM)	168
Cc1nc(Nc2ncc(C(=O)Nc3c(C)cccc3Cl)s2)cc(N2CCN(CCO)CC2)n1 [dasatanib] + c1cc(-c2cnn3cc(-c4ccc(OCCN5CCCCC5)cc4)cnc23)ccn1 [Dorsomorphin] (first compound 0.004 µM, partner dose 0.4 µM)	90.9
Cn1cncc1[C@@](N)(c1ccc(Cl)cc1)c1ccc2c(c1)c(-c1cccc(Cl)c1)cc(=O)n2C [tipifarnib] + O=C(O)C(=O)Nc1sc2c(c1C(=O)O)CCNC2 [TCS401] (first compound 0.01 µM, partner dose 1.66667 µM)	216
Cn1c(Nc2ccc(C(F)(F)F)cc2)nc2cc(Oc3ccnc(-c4ncc(C(F)(F)F)[nH]4)c3)ccc21 + O=C(Nc1ccccc1)c1cc([N+](=O)[O-])ccc1Cl [GW9662] (first compound 0.08 µM, partner dose 2 µM)	88.2
Cn1cncc1[C@@](N)(c1ccc(Cl)cc1)c1ccc2c(c1)c(-c1cccc(Cl)c1)cc(=O)n2C [tipifarnib] + Oc1nc(-c2ccc(C(F)(F)F)cc2)nc2c1CSCC2 [XAV939] (first compound 0.01 µM, partner dose 2 µM)	86.8
Cn1nnc2c(C(N)=O)ncn2c1=O [temozolomide] + COc1ccc2c(c1)CCC1C2CCC2(C)C(NCCCCCCN3C(=O)C=CC3=O)CCC12 [U73122] (first compound 2 µM, partner dose 0.4 µM)	148

system: CBRC034 (line from a melanoma biopsy); assay: as above; details: library dose: low library concentration; 72 h

SMILES	cleaved PARP positive nuclei fraction [%]
OCCn1cc(-c2cnc3nnn(Cc4ccc5ncccc5c4)c3n2)cn1 + Oc1cc(-c2nc(-c3ccccc3)[nH]c2-c2ccncc2)ccc1Cl [L779450] (first compound 1 µM, partner dose 0.2 µM)	111
CO[C@@H]1[C@H](N(C)C(=O)c2ccccc2)C[C@H]2O[C@]1(C)n1c3ccccc3c3c4c(c5c6ccccc6n2c5c31)C(=O)NC4 [Midostaurin] + O=C(Nc1ccccc1)c1cc([N+](=O)[O-])ccc1Cl [GW9662] (first compound 0.08 µM, partner dose 2 µM)	88.5
CC1(C)NC(=O)N(c2ccc([N+](=O)[O-])c(C(F)(F)F)c2)C1=O [nilutamide] + COC(=O)c1sccc1S(=O)(=O)Nc1ccc(Nc2ccccc2)cc1OC [GSK0660] (first compound 1 µM, partner dose 1 µM)	42
Cc1nc(Nc2ncc(C(=O)Nc3c(C)cccc3Cl)s2)cc(N2CCN(CCO)CC2)n1 [dasatanib] + Cc1cc([N+](=O)[O-])ccc1NS(=O)(=O)c1cc(Cl)ccc1Cl [FH535] (first compound 0.004 µM, partner dose 1 µM)	737
C[C@@H]1CCN(C(=O)CC#N)C[C@@H]1N(C)c1ncnc2[nH]ccc12 + O=C(Nc1ccccc1)c1cc([N+](=O)[O-])ccc1Cl [GW9662] (first compound 1 µM, partner dose 2 µM)	24
C=CCn1c(=O)c2cnc(Nc3ccc(N4CCN(C)CC4)cc3)nc2n1-c1cccc(C(C)(C)O)n1 + O=c1cc(-c2cccc3c2Sc2ccccc2S3)oc(N2CCOCC2)c1 [KU55933] (first compound 0.02 µM, partner dose 1 µM)	57.1
Cc1ccc(NC(=O)c2cccc(N(C)C)c2)cc1NC(=O)c1ccc(O)cc1 + N#Cc1c(O)c2c(-c3ccc(-c4ccccc4O)cc3)csc2[nH]c1=O [A769662] (first compound 2 µM, partner dose 2 µM)	82.9
Cc1cc(N2CCOCC2)cc2[nH]c(-c3c(NC[C@@H](O)c4cccc(Cl)c4)cc[nH]c3=O)nc12 + O=C(O)C(=O)Nc1sc2c(c1C(=O)O)CCNC2 [TCS401] (first compound 0.2 µM, partner dose 1.66667 µM)	172
C=CCn1c(=O)c2cnc(Nc3ccc(N4CCN(C)CC4)cc3)nc2n1-c1cccc(C(C)(C)O)n1 + CCN(CC)CCCCNc1ncc2cc(-c3cc(OC)cc(OC)c3)c(NC(=O)NC(C)(C)C)nc2n1 [PD173074] (first compound 0.02 µM, partner dose 0.1 µM)	65.5
Cc1cc(N2CCOCC2)cc2[nH]c(-c3c(NC[C@@H](O)c4cccc(Cl)c4)cc[nH]c3=O)nc12 + O=c1cc(-c2cccc3c2Sc2ccccc2S3)oc(N2CCOCC2)c1 [KU55933] (first compound 0.2 µM, partner dose 1 µM)	301
C#Cc1cccc(Nc2ncnc3cc(OCCOC)c(OCCOC)cc23)c1 [erlotinib] + O=c1cc(-c2cccc3c2Sc2ccccc2S3)oc(N2CCOCC2)c1 [KU55933] (first compound 0.8 µM, partner dose 1 µM)	104
Cn1c(Nc2ccc(C(F)(F)F)cc2)nc2cc(Oc3ccnc(-c4ncc(C(F)(F)F)[nH]4)c3)ccc21 + O=C1NC(=O)/C(=C/c2ccc(-c3ccc(F)cc3O)o2)S1 [AS252424] (first compound 0.08 µM, partner dose 1 µM)	160
NC(=O)Nc1cc(-c2cccc(F)c2)sc1C(=O)N[C@H]1CCCNC1 + CCCCCCCCCCCC1=C(O)C(=O)C=C(O)C1=O [Embelin] (first compound 0.02 µM, partner dose 1.2 µM)	205
C=CCn1c(=O)c2cnc(Nc3ccc(N4CCN(C)CC4)cc3)nc2n1-c1cccc(C(C)(C)O)n1 + COc1cc2ncnc(Nc3ccc(Oc4ccccc4)cc3)c2cc1OC [SrcI1] (first compound 0.02 µM, partner dose 2 µM)	94.6
Cn1c(Nc2ccc(C(F)(F)F)cc2)nc2cc(Oc3ccnc(-c4ncc(C(F)(F)F)[nH]4)c3)ccc21 + N#Cc1c(O)c2c(-c3ccc(-c4ccccc4O)cc3)csc2[nH]c1=O [A769662] (first compound 0.08 µM, partner dose 2 µM)	105
Cn1nnc2c(C(N)=O)ncn2c1=O [temozolomide] + COc1cc(N2CCC(N3CCN(C)CC3)CC2)ccc1Nc1ncc(Cl)c(Nc2ccccc2S(=O)(=O)C(C)C)n1 [NVP-TAE684] (first compound 2 µM, partner dose 0.08 µM)	78.1
O=C(CCCCCCC(=O)Nc1ccccc1)NO [vorinostat] + COc1ccc(COc2ccc(Cc3cnc(N)nc3N)cc2OC)cc1 [GW2580] (first compound 0.08 µM, partner dose 1 µM)	44
C#Cc1cccc(Nc2ncnc3cc(OCCOC)c(OCCOC)cc23)c1 [erlotinib] + Oc1cc(-c2nc(-c3ccccc3)[nH]c2-c2ccncc2)ccc1Cl [L779450] (first compound 0.8 µM, partner dose 0.2 µM)	63.2
C#Cc1cccc(Nc2ncnc3cc(OCCOC)c(OCCOC)cc23)c1 [erlotinib] + N#Cc1c(O)c2c(-c3ccc(-c4ccccc4O)cc3)csc2[nH]c1=O [A769662] (first compound 0.8 µM, partner dose 2 µM)	81.4
COCC[n+]1c2c(n(Cc3cnccn3)c1C)C(=O)c1ccccc1C2=O + COc1ccc(-c2ccc3c(N4CCOCC4)nc(N4C[C@@H](C)O[C@@H](C)C4)nc3n2)cc1CO [KU0063794] (first compound 0.0004 µM, partner dose 0.02 µM)	98.2
COc1cc(Nc2ncc(F)c(Nc3ccc4c(n3)NC(=O)C(C)(C)O4)n2)cc(OC)c1OC [Tamatinib] + O=C1NC(=O)/C(=C/c2ccc(-c3ccc(F)cc3O)o2)S1 [AS252424] (first compound 0.4 µM, partner dose 1 µM)	193
OCCn1cc(-c2cnc3nnn(Cc4ccc5ncccc5c4)c3n2)cn1 + Cc1cc([N+](=O)[O-])ccc1NS(=O)(=O)c1cc(Cl)ccc1Cl [FH535] (first compound 1 µM, partner dose 1 µM)	190
Nc1cccc2c1CN(C1CCC(=O)NC1=O)C2=O (stereo not drawn) [lenalidomide] + CCN(CC)CCCCNc1ncc2cc(-c3cc(OC)cc(OC)c3)c(NC(=O)NC(C)(C)C)nc2n1 [PD173074] (first compound 1 µM, partner dose 0.1 µM)	58
C[C@@H]1CCN(C(=O)CC#N)C[C@@H]1N(C)c1ncnc2[nH]ccc12 + O=C(O)C(=O)Nc1sc2c(c1C(=O)O)CCNC2 [TCS401] (first compound 1 µM, partner dose 1.66667 µM)	176
OCCn1cc(-c2cnc3nnn(Cc4ccc5ncccc5c4)c3n2)cn1 + COc1ccc2c(c1)CCC1C2CCC2(C)C(NCCCCCCN3C(=O)C=CC3=O)CCC12 [U73122] (first compound 1 µM, partner dose 0.4 µM)	47.2
Cc1cc(N2CCOCC2)cc2[nH]c(-c3c(NC[C@@H](O)c4cccc(Cl)c4)cc[nH]c3=O)nc12 + O=C(Nc1ccccc1)c1cc([N+](=O)[O-])ccc1Cl [GW9662] (first compound 0.2 µM, partner dose 2 µM)	186
Nc1cccc2c1CN(C1CCC(=O)NC1=O)C2=O (stereo not drawn) [lenalidomide] + O=C(Nc1ccccc1)c1cc([N+](=O)[O-])ccc1Cl [GW9662] (first compound 1 µM, partner dose 2 µM)	85.2

A run of entries of the results above:
SMILES	cleaved PARP positive nuclei fraction [%]
C#Cc1cccc(Nc2ncnc3cc(OCCOC)c(OCCOC)cc23)c1 [erlotinib] + N#Cc1c(O)c2c(-c3ccc(-c4ccccc4O)cc3)csc2[nH]c1=O [A769662] (first compound 0.8 µM, partner dose 2 µM)	81.4
COCC[n+]1c2c(n(Cc3cnccn3)c1C)C(=O)c1ccccc1C2=O + COc1ccc(-c2ccc3c(N4CCOCC4)nc(N4C[C@@H](C)O[C@@H](C)C4)nc3n2)cc1CO [KU0063794] (first compound 0.0004 µM, partner dose 0.02 µM)	98.2
COc1cc(Nc2ncc(F)c(Nc3ccc4c(n3)NC(=O)C(C)(C)O4)n2)cc(OC)c1OC [Tamatinib] + O=C1NC(=O)/C(=C/c2ccc(-c3ccc(F)cc3O)o2)S1 [AS252424] (first compound 0.4 µM, partner dose 1 µM)	193
OCCn1cc(-c2cnc3nnn(Cc4ccc5ncccc5c4)c3n2)cn1 + Cc1cc([N+](=O)[O-])ccc1NS(=O)(=O)c1cc(Cl)ccc1Cl [FH535] (first compound 1 µM, partner dose 1 µM)	190
Nc1cccc2c1CN(C1CCC(=O)NC1=O)C2=O (stereo not drawn) [lenalidomide] + CCN(CC)CCCCNc1ncc2cc(-c3cc(OC)cc(OC)c3)c(NC(=O)NC(C)(C)C)nc2n1 [PD173074] (first compound 1 µM, partner dose 0.1 µM)	58
C[C@@H]1CCN(C(=O)CC#N)C[C@@H]1N(C)c1ncnc2[nH]ccc12 + O=C(O)C(=O)Nc1sc2c(c1C(=O)O)CCNC2 [TCS401] (first compound 1 µM, partner dose 1.66667 µM)	176
